Test results reported in paper doi:10.1101/2021.04.29.441934.
No constants are given. Whether binding was seen depends on the method and setting. Binding seen in cells or lysates may run through a third protein. Here binding means that the protein was enriched with, or labelled near, the bait; the list need not be complete.

The chains behind the UniProt entries cited, without tags or fusion partners.
UniProt Q96524: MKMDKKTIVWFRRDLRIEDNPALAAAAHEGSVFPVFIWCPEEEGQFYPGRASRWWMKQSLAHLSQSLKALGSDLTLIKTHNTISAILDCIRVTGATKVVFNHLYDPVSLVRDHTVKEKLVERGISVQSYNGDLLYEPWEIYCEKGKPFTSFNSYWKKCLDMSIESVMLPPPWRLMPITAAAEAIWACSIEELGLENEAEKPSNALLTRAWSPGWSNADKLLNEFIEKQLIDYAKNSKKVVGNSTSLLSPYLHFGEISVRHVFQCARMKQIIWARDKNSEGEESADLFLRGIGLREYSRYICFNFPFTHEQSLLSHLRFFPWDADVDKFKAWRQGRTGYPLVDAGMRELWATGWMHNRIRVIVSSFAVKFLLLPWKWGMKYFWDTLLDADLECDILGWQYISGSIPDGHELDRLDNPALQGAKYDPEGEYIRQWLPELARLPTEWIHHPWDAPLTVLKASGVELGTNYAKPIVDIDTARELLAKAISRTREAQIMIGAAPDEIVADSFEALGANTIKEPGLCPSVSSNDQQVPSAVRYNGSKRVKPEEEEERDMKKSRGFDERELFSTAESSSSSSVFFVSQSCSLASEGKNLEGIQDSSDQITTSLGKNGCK
UniProt Q43125: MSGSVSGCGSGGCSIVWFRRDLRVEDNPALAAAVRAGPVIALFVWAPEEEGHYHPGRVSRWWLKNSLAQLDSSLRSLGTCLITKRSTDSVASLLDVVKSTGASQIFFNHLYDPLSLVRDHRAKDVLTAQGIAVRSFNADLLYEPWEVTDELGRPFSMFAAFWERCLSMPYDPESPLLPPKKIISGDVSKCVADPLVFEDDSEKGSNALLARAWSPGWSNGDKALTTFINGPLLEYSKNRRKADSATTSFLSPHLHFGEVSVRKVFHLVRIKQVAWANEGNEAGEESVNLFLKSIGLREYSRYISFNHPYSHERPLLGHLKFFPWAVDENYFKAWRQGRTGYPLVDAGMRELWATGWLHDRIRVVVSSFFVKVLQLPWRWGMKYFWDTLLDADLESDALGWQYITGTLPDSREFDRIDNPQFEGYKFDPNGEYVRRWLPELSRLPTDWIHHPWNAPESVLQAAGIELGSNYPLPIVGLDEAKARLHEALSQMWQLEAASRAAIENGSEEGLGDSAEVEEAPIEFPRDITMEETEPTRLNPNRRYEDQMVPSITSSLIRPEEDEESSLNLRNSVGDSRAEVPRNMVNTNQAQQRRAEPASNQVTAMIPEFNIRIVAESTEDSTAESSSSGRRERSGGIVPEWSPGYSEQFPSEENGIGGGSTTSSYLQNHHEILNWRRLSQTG

B1: BIC1 (Blue-light Inhibitor of Cryptochromes 1), endogenous (protein, UniProt Q9LXJ1 1-140)
chain: MMNIDDTTSPMAHPIGPSQPPSDQTKQDPPSLPQEAASSVSADKKDLALLEEKPKQSQEEDRVDTGRERLKKHRREIAGRVWIPEIWGQEELLKDWIDCSTFDTCLVPAGISSARTALVEEARRAASASGGLHNRCLILR
B2: ubiquitin-specific protease 13 (UBP13), endogenous (enzyme, UniProt Q84WU2 1-1115)
chain: MTMMTPPPLDQQEDEEMLVPNPDLVEGPQPMEVAQTDPAATAVENPPPEDPPSLKFTWTIPMFTRLNTRKHYSDVFVVGGYKWRILIFPKGNNVDHLSMYLDVADAANLPYGWSRYSQFSLAVVNQVNNRYSIRKETQHQFNARESDWGFTSFMPLSELYEPTRGYLVNDTVLIEAEVAVRKVLDYWSYDSKKETGFVGLKNQGATCYMNSLLQTLYHIPYFRKAVYHMPTTENDAPTASIPLALQSLFYKLQYNDTSVATKELTKSFGWDTYDSFMQHDVQELNRVLCEKLEDKMKGTVVEGTIQKLFEGHHMNYIECINVDYKSTRKESFYDLQLDVKGCKDVYASFDKYVEVERLEGDNKYHAEGHDLQDAKKGVLFIDFPPVLQLQLKRFEYDFMRDTMVKINDRYEFPLQLDLDREDGRYLSPDADKSVRNLYTLHSVLVHSGGVHGGHYYAFIRPTLSDQWYKFDDERVTKEDVKRALEEQYGGEEELPQNNPGFNNPPFKFTKYSNAYMLVYIRESDKDKIICNVDEKDIAEHLRVRLKKEQEEKEDKRKYKAQAHLFTTIKVARDDDITEQIGKNIYFDLVDHEKVRSFRIQKQTPFQQFKEEVAKEFGVPVQLQRFWIWAKRQNHTYRPNRPLSPNEELQTVGQIREASNKANNAELKLFLEIERGPDDLPIPPPEKTSEDILLFFKLYDPENAVLRYVGRLMVKSSSKPMDIVGQLNKMAGFAPDEEIELFEEIKFEPCVMCEQIDKKTSFRLCQIEDGDIICYQKPLSIEESEFRYPDVPSFLEYVQNRELVRFRTLEKPKEDEFTMELSKLHTYDDVVERVAEKLGLDDPSKLRLTSHNCYSQQPKPQPIKYRGVDHLSDMLVHYNQTSDILYYEVLDIPLPELQGLKTLKVAFHSATKDEVIIHNIRLPKQSTVGDVINELKTKVELSHQDAELRLLEVFFHKIYKIFPSTERIENINDQYWTLRAEEIPEEEKNIGPNDRLIHVYHFTKEAGQNQQVQNFGEPFFLVIHEGETLEEIKTRIQKKLHVPDEDFAKWKFASFSMGRPDYLLDTDVVYNRFQRRDVYGAWEQYLGLEHIDNAPKRAYAANQNRHAYEKPVKIYN
B3: ubiquitin-specific protease 12 (UBP12), endogenous (enzyme, UniProt Q9FPT1 1-1116)
chain: MTMMTPPPVDQPEDEEMLVPNSDLVDGPAQPMEVTQPETAASTVENQPAEDPPTLKFTWTIPNFSRQNTRKHYSDVFVVGGYKWRILIFPKGNNVDHLSMYLDVSDAASLPYGWSRYAQFSLAVVNQIHTRYTVRKETQHQFNARESDWGFTSFMPLSELYDPSRGYLVNDTVLVEAEVAVRKVLDYWSYDSKKETGFVGLKNQGATCYMNSLLQTLYHIPYFRKAVYHMPTTENDAPTASIPLALQSLFYKLQYNDTSVATKELTKSFGWDTYDSFMQHDVQELNRVLCEKLEDKMKGTVVEGTIQQLFEGHHMNYIECINVDFKSTRKESFYDLQLDVKGCKDVYASFDKYVEVERLEGDNKYHAEGHGLQDAKKGVLFIDFPPVLQLQLKRFEYDFMRDTMVKINDRYEFPLELDLDREDGKYLSPDADRSVRNLYTLHSVLVHSGGVHGGHYYAFIRPTLSDQWYKFDDERVTKEDLKRALEEQYGGEEELPQTNPGFNNNPPFKFTKYSNAYMLVYIRESDKDKIICNVDEKDIAEHLRVRLKKEQEEKEDKRRYKAQAHLYTIIKVARDEDLKEQIGKDIYFDLVDHDKVRSFRIQKQTPFQQFKEEVAKEFGVPVQLQRFWIWAKRQNHTYRPNRPLTPQEELQPVGQIREASNKANTAELKLFLEVEHLDLRPIPPPEKSKEDILLFFKLYDPEKAVLSYAGRLMVKSSSKPMDITGKLNEMVGFAPDEEIELFEEIKFEPCVMCEHLDKKTSFRLCQIEDGDIICFQKPLVNKEIECLYPAVPSFLEYVQNRQLVRFRALEKPKEDEFVLELSKQHTYDDVVEKVAEKLGLDDPSKLRLTSHNCYSQQPKPQPIKYRGVDHLSDMLVHYNQTSDILYYEVLDIPLPELQGLKTLKVAFHHATKEEVVIHNIRLPKQSTVGDVINELKTKVELSHPDAELRLLEVFYHKIYKIFPSTERIENINDQYWTLRAEEIPEEEKNIGPNDRLILVYHFAKETGQNQQVQNFGEPFFLVIHEGETLEEIKNRIQKKLHVSDEDFAKWKFAFMSMGRPEYLQDTDVVYNRFQRRDVYGAFEQYLGLEHADTTPKRAYAANQNRHAYEKPVKIYN

biological target: 9×Myc-6×His-3×Flag-CRY2 (Arabidopsis thaliana) (UniProt Q96524); experiment: affinity purification with mass spectrometry

With “CRY1 (cryptochrome 1), endogenous (from UniProt Q43125 1-681) (receptor)” as the molecule, how does the binding read?
Its binding is “binds”.

With B1 as the molecule, how does the binding read?
Its binding is “binds”.

How did the binding turn out when B2 was run?
The binding was “binds”.

B3 was tested. Which binding did it give?
The binding was “binds”.
